# Measured values from the supplement of paper PMC10849652.
# Protein sequences, listed by entry. Tags and fused reporters are not part of them. Lines headed by an entry give the natural chain unless they say otherwise; changes in a name come on top.
# UniProt P31948, whole entry, looked up: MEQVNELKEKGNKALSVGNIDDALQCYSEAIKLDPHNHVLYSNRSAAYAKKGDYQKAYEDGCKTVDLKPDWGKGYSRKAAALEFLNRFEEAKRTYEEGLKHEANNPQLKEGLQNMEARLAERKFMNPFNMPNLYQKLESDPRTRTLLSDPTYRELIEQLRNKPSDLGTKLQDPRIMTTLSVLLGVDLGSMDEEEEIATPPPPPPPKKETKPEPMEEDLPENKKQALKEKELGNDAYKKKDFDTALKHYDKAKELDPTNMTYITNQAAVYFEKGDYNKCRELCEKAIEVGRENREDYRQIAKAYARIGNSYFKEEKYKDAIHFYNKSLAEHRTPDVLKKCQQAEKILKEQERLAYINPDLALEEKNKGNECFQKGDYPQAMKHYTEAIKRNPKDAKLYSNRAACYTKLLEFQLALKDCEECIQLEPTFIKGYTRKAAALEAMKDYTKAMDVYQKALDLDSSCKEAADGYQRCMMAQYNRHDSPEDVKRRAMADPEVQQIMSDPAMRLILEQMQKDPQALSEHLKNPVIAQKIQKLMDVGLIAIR
# UniProt P49458: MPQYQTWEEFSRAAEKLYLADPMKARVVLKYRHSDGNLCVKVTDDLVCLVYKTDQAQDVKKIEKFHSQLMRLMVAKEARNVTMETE
# UniProt P78362, whole entry, looked up: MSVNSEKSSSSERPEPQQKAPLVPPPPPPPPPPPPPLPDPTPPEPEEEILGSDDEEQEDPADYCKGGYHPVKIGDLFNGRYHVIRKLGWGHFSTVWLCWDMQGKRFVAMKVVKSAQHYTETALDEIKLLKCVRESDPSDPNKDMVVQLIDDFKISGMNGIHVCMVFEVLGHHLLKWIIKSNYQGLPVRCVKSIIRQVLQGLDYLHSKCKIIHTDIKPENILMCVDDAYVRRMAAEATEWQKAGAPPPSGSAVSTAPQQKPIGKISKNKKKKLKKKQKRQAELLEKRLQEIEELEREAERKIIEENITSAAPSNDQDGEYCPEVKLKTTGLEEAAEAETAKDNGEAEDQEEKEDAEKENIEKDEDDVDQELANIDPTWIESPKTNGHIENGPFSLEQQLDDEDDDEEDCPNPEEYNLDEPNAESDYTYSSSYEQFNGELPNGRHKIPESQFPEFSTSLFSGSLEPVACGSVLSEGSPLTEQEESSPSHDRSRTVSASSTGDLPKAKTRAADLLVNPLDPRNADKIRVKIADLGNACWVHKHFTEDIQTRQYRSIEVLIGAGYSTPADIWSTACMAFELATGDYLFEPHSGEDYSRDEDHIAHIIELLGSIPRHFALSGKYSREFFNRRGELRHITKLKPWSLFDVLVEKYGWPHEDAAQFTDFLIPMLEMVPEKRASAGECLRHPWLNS
# UniProt Q15831: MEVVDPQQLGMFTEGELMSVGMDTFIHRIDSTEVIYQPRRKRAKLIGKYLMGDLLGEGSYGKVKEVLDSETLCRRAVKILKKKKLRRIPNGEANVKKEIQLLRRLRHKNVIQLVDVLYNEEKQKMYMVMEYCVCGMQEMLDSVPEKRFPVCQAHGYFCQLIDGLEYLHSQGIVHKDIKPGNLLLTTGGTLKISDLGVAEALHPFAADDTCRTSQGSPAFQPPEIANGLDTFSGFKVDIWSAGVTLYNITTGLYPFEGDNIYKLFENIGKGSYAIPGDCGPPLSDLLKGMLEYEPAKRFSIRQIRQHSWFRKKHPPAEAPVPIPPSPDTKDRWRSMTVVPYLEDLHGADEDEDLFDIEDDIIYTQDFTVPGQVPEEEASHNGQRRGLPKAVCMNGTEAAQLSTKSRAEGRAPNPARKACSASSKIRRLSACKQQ
# UniProt Q9Y657, whole entry, looked up: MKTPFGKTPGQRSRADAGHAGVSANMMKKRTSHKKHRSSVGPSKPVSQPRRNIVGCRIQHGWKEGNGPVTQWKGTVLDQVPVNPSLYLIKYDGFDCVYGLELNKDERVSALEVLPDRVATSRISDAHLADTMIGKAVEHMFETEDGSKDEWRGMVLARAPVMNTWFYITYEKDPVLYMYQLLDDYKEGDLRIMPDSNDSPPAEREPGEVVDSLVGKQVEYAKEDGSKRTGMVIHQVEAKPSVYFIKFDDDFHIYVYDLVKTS
# UniProt Q08AE8, whole entry, looked up: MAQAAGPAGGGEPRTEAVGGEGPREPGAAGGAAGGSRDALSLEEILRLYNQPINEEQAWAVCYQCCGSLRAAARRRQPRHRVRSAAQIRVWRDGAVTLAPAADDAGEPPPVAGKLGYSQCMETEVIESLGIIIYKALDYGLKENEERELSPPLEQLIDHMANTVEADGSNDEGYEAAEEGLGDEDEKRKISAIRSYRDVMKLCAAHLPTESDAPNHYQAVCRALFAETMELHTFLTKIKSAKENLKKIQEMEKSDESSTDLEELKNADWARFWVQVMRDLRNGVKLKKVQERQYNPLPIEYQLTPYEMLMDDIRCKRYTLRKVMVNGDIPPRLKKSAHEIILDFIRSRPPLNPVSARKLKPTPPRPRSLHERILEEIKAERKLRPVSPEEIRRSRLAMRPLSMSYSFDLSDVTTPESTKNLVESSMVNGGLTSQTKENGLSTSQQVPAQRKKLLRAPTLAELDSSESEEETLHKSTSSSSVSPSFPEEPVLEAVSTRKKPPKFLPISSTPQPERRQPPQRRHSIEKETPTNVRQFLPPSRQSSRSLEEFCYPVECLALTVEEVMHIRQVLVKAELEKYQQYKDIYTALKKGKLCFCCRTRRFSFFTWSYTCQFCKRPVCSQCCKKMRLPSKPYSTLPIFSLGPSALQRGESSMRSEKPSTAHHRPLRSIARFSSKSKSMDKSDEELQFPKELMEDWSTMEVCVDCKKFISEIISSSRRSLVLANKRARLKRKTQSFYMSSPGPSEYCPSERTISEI
# UniProt Q05519: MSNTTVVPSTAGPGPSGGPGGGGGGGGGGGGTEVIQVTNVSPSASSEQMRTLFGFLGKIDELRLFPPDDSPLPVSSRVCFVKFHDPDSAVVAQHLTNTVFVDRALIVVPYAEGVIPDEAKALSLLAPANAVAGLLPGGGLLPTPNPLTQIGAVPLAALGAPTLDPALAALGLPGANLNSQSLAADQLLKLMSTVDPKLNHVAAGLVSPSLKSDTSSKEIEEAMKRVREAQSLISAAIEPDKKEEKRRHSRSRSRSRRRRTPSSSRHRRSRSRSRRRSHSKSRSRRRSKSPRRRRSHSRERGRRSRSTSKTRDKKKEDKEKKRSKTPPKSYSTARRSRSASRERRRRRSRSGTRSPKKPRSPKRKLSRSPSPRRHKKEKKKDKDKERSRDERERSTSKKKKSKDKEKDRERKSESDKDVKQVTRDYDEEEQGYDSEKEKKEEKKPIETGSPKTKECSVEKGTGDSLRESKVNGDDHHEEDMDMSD
# UniProt P16150: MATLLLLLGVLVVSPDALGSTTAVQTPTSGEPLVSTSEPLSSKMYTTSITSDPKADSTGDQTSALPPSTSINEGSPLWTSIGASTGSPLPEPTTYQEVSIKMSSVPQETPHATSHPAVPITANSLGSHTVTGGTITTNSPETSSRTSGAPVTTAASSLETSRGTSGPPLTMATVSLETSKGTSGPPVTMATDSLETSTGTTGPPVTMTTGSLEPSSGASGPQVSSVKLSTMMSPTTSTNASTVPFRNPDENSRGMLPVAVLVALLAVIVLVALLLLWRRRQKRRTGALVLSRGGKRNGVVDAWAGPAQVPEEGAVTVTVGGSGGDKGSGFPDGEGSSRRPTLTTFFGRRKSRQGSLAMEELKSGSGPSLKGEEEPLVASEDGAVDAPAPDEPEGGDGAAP
# UniProt Q69YQ0: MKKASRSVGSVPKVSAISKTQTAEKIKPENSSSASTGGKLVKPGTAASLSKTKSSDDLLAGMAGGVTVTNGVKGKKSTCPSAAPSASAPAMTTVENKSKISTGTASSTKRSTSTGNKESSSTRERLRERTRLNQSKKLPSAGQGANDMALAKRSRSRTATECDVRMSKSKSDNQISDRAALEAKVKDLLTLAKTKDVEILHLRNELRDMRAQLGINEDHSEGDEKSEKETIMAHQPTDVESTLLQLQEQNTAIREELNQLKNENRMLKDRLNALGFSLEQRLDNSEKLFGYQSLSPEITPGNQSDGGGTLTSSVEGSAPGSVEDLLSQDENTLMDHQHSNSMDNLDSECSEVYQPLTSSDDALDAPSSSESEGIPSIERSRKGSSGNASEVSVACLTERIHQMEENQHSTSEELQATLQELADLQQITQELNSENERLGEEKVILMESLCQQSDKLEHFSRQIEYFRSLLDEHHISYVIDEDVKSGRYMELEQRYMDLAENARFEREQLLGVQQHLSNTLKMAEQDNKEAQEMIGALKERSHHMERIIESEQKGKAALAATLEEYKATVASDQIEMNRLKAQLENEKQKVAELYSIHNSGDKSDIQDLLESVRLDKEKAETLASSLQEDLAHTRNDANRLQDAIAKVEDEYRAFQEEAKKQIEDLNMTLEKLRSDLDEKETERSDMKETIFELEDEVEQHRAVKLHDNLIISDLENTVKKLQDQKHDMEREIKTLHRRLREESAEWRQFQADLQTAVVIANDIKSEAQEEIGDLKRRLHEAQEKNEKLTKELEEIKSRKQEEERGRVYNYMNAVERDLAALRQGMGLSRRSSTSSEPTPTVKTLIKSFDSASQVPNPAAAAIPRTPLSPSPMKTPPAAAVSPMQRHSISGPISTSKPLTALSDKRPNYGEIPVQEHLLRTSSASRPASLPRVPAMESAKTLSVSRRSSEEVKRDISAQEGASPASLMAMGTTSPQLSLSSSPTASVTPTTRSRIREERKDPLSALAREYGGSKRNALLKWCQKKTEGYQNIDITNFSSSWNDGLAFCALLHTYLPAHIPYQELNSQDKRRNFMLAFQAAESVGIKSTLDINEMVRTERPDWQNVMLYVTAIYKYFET
# UniProt Q9NZD8: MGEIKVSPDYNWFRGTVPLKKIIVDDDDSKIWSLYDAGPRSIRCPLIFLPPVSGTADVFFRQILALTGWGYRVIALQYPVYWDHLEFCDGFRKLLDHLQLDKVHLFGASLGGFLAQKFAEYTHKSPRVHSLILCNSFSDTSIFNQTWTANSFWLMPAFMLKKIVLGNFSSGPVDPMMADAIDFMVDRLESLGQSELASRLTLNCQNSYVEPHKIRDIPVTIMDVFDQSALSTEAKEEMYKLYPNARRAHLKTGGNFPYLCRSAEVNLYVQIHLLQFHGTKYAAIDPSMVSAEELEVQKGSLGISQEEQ
# UniProt O95793: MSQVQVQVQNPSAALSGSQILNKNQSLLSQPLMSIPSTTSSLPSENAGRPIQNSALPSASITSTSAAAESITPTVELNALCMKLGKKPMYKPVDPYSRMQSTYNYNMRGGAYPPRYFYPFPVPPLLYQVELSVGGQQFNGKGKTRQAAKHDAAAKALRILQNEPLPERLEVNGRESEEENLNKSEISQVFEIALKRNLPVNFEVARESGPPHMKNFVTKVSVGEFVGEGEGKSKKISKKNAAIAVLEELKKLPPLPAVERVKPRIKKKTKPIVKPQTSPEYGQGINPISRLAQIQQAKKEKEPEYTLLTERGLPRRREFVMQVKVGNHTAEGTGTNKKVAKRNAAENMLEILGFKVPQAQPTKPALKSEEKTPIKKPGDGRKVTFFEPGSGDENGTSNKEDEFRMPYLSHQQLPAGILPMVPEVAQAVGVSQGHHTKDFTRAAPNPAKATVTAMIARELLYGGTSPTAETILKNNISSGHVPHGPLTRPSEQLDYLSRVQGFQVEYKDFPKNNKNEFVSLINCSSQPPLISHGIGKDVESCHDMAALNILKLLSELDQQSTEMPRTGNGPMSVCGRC
# UniProt Q9UBP0: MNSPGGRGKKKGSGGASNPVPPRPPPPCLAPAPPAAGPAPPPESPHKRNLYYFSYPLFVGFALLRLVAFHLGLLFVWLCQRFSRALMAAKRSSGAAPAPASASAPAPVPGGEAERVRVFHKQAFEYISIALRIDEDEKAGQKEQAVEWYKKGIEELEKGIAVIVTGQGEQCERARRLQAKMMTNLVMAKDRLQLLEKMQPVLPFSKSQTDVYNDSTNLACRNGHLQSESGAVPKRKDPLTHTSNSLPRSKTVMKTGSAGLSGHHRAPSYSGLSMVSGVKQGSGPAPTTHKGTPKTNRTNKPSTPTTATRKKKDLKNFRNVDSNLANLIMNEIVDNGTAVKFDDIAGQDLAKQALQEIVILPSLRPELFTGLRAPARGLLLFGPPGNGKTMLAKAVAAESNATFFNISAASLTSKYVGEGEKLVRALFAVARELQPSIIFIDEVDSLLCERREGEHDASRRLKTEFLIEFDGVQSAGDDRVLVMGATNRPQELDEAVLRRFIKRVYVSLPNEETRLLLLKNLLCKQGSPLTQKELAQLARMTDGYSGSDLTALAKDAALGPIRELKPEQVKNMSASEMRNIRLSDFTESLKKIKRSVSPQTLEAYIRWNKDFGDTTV
# This is one part of the list. Residues, ends and D or L forms follow the SMILES beside them. *: point of attachment. Cbz = O=C(OCc1ccccc1)*
# How the values were obtained:
# Test in all cases: log2 fold change, soluble protein after heating vs DMSO (PISA); higher = thermal stabilisation; K562 cells, 10 uM, 30 min; active = over 0.2 and 3.5 SD of the protein, either way, in both replicates (recomputed)
# erlotinib = compound: C#Cc1cccc(Nc2ncnc3cc(OCCOC)c(OCCOC)cc23)c1 [erlotinib]
# In short: (§1)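 Soluble protein was defined as the supernatant after 21,000xg for 90 min. It came from K562 cells at 2×10^6 cells/mL given 10 μM compound for 30 min, heated in aliquots for 3 min across 48°C-58°C, pooled, and extracted in PBS with 0.5% NP-40 at 4°C, and was quantified by TMTpro 16plex LC-MS/MS with equalised channel sums. Thermal stability against control samples, from duplicates, is reported as log2 fold change.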
# [1] = compound: C/C(=N\NC(=O)C1=CC(=CC=C1)S(=O)(=O)N2CCOCC2)/C3=C(C=CC(=C3)Cl)O
# In short: as §1
# [2] = compound: C1=CC(=C(C=C1Cl)C2=NC3=NC=CN=C3C(=N2)NC4=CC=NC=C4)F
# In short: as §1
# [3] = compound: C1=CC(=CC=C1C2=NC3=C(N2)C=C(C=C3)C(=O)N)OC4=CC=C(C=C4)Cl
# In short: as §1
# [4] = compound: C1=CC2=C(C=CC(=C2)/C=C\3/C(=O)NC(=NCC4=CC=CS4)S3)N=C1
# In short: as §1
# [5] = compound: C1=CC2=NC=CN=C2C=C1/C=C/3\C(=O)NC(=O)S3
# In short: as §1
# [6] = compound: C1=CC=C(C=C1)C2=NC(=C(N2)C3=CC=NC=C3)C4=CC(=C(C=C4)Cl)O
# In short: as §1
# [7] = compound: C1=CC=C2C(=C1)C3=NNC4=CC=CC(=C43)C2=O
# In short: as §1
# [8] = compound: C1CCN(C1)C(=O)NC2=CC=CC(=C2)NC3=NC=C(C(=N3)NCCC4=CN=CN4)Br
# In short: as §1
# [9] = compound: C1CN(CCC1(CC2=CC=C(C=C2)Cl)N)C3=NC=NC4=C3C=CN4
# In short: as §1
# IRAK-1-4 Inhibitor I = compound: C1COCCN1CCN2C3=CC=CC=C3N=C2NC(=O)C4=CC(=CC=C4)[N+](=O)[O-] [IRAK-1-4 Inhibitor I]
# In short: as §1
# ibrutinib = compound: C=CC(=O)N1CCC[C@@H](n2nc(-c3ccc(Oc4ccccc4)cc3)c3c(N)ncnc32)C1 [ibrutinib]
# In short: as §1
# [10] = compound: CC(=O)c1cnc2ccc(-c3cc(Cl)c(O)c(Cl)c3)nc2c1N[C@H]1CC[C@H](CN(C)C)CC1
# In short: as §1
# ralimetinib = compound: CC(C)(C)Cn1c(N)nc2ccc(-c3[nH]c(C(C)(C)C)nc3-c3ccc(F)cc3)nc21 [ralimetinib]
# In short: as §1
# [11] = compound: CC(C)(O)CC(=O)NCCn1ccc2ncnc(Nc3ccc(Oc4cccc(C(F)(F)F)c4)c(Cl)c3)c21
# In short: as §1
# [12] = compound: CC(C)C1=C2N=C(C=C(N2N=C1)NCC3=CC=CC=C3)NCCCCCCN
# In short: as §1
# [13] = compound: CC(C)C[C@@H](C=O)NC(=O)[C@H](CC(C)C)NC(=O)[C@H](CC(C)C)NC(=O)OCc1ccccc1
# In short: as §1
# pinometostat = compound: CC(C)N(C[C@H]1O[C@@H](n2cnc3c(N)ncnc32)[C@H](O)[C@@H]1O)[C@H]1C[C@@H](CCc2nc3cc(C(C)(C)C)ccc3[nH]2)C1 [pinometostat]
# In short: as §1
# [14] = compound: CC1=C(C(CC(=O)N1)C2=CC=C(C=C2)C(F)(F)F)C(=O)NC3=C(C=C4C(=C3)C=NN4)F
# In short: as §1
# [15] = compound: CC1=C(C2=C(C=C1)C(=O)C3=CC=CC=C3N2CCCN)C
# In short: as §1
Target,log2 fold change (erlotinib),log2 fold change [1],log2 fold change [2],log2 fold change [3],log2 fold change [4],log2 fold change [5],log2 fold change [6],log2 fold change [7],log2 fold change [8],log2 fold change [9],log2 fold change (IRAK-1-4 Inhibitor I),log2 fold change (ibrutinib),log2 fold change [10],log2 fold change (ralimetinib),log2 fold change [11],log2 fold change [12],log2 fold change [13],log2 fold change (pinometostat),log2 fold change [14],log2 fold change [15]
STIP1 isoform 2 (UniProt P31948),inactive: -0.02,inactive: 0.015,inactive: 0.022,inactive: 0.004,inactive: -0.012,inactive: 0.016,inactive: -0.005,inactive: 0.009,inactive: 0.023,inactive: 0.012,inactive: 0.018,inactive: -0.008,inactive: -0.017,inactive: -0.049,inactive: 0.009,inactive: 0.021,inactive: -0.011,inactive: -0.071,inactive: -0.023,inactive: 0.01
SRP9 (UniProt P49458),inactive: -0.111,inactive: -0.111,inactive: -0.48,inactive: -0.023,inactive: -0.063,inactive: 0.031,inactive: -0.076,inactive: -0.023,inactive: 0.061,inactive: -0.089,inactive: -0.171,inactive: -0.028,inactive: 0.084,inactive: 0.125,inactive: 0.07,inactive: 0.057,inactive: 0.152,inactive: 0.31,inactive: 0.106,inactive: -0.356
SRPK2 isoform 2 (UniProt P78362),inactive: -0.209,inactive: -0.125,inactive: -0.549,inactive: 0.126,inactive: -0.052,inactive: 0.007,inactive: -0.054,inactive: 0.049,inactive: 0.038,inactive: -0.186,inactive: -0.097,inactive: -0.003,inactive: 0.328,inactive: 0.182,inactive: 0.026,inactive: -0.011,inactive: 0.13,inactive: 0.346,inactive: 0.065,inactive: -0.4
ST13 (UniProt P50502),inactive: -0.016,inactive: 0.029,inactive: 0.035,inactive: 0.005,inactive: 0.006,inactive: 0.011,inactive: 0.012,inactive: 0.036,inactive: 0.021,inactive: 0,inactive: 0.017,inactive: -0.029,inactive: 0.005,inactive: -0.005,inactive: -0.038,inactive: -0.068,inactive: -0.013,inactive: -0.021,inactive: 0,inactive: -0.002
STAMBP (UniProt O95630),inactive: -0.001,inactive: 0.105,inactive: -0.015,inactive: -0.071,inactive: 0.006,inactive: -0.029,inactive: 0.089,inactive: 0.033,inactive: 0.005,inactive: -0.148,inactive: -0.051,inactive: -0.027,inactive: 0.005,inactive: 0.094,inactive: -0.03,inactive: -0.097,inactive: 0.022,inactive: 0.11,inactive: -0.074,inactive: 0.021
STK11 (UniProt Q15831),inactive: -0.103,inactive: -0.002,inactive: -0.022,inactive: 0.099,inactive: 0.034,inactive: 0.029,inactive: -0.06,inactive: -0.013,inactive: 0.031,inactive: 0.037,inactive: 0.071,inactive: 0.029,inactive: -0.104,inactive: -0.004,inactive: -0.025,inactive: 0.091,inactive: 0.065,inactive: -0.002,inactive: 0.021,inactive: 0.003
SPIN1 (UniProt Q9Y657),inactive: -0.17,inactive: -0.107,inactive: 0.06,inactive: -0.017,inactive: 0.065,inactive: 0,inactive: -0.008,inactive: -0.035,inactive: -0.007,inactive: -0.024,inactive: -0.025,inactive: 0.046,inactive: -0.066,inactive: -0.043,inactive: -0.074,inactive: 0.102,inactive: 0.215,inactive: 0.059,inactive: -0.024,inactive: 0.083
STAG1 (UniProt Q8WVM7),inactive: -0.039,inactive: 0.167,inactive: -0.016,inactive: 0.045,inactive: 0.033,inactive: 0.026,inactive: -0.036,inactive: -0.071,inactive: -0.076,inactive: -0.017,inactive: -0.035,inactive: -0.06,inactive: -0.161,inactive: -0.053,inactive: -0.038,inactive: -0.006,inactive: -0.039,inactive: -0.021,inactive: -0.021,inactive: -0.115
SPIRE1 (UniProt Q08AE8),inactive: 0.16,inactive: -0.264,active: -0.466,inactive: -0.119,inactive: 0.11,inactive: -0.034,inactive: 0.048,inactive: -0.063,inactive: 0.01,inactive: 0.145,inactive: -0.065,inactive: 0.032,inactive: 0,inactive: 0.008,inactive: 0.073,inactive: 0.181,inactive: 0.09,inactive: -0.006,–,inactive: 0.029
SRSF11 (UniProt Q05519),inactive: 0.05,inactive: 0.191,inactive: 0.06,inactive: 0.054,inactive: -0.049,inactive: -0.003,inactive: -0.026,inactive: -0.003,inactive: -0.129,inactive: -0.196,inactive: -0.116,inactive: -0.014,active: -0.416,inactive: 0.01,inactive: -0.049,inactive: -0.255,inactive: -0.005,inactive: -0.016,–,inactive: 0.026
STAM2 (UniProt O75886),inactive: -0.026,inactive: 0.081,inactive: 0.036,inactive: -0.031,inactive: 0.022,inactive: 0.01,inactive: 0.002,inactive: -0.006,inactive: -0.047,inactive: -0.025,inactive: 0.033,inactive: 0.008,inactive: -0.018,inactive: 0.034,inactive: 0.038,inactive: -0.131,inactive: 0.018,inactive: 0.014,–,inactive: 0.004
SPN (UniProt P16150),inactive: 0.067,inactive: -0.048,inactive: 0.018,inactive: 0.013,inactive: -0.029,inactive: 0.02,inactive: -0.046,inactive: -0.032,inactive: 0.018,inactive: 0.159,inactive: 0.113,inactive: 0.033,inactive: 0.027,inactive: -0.033,inactive: 0.047,inactive: 0.192,inactive: 0,inactive: 0.032,inactive: 0.005,inactive: 0.012
SPECC1L (UniProt Q69YQ0),inactive: 0.021,inactive: -0.022,inactive: 0.065,inactive: -0.026,inactive: 0.017,inactive: -0.003,inactive: 0.102,inactive: -0.025,inactive: 0.002,inactive: 0.009,inactive: 0.049,inactive: 0.035,inactive: -0.032,inactive: -0.023,inactive: -0.124,inactive: 0.071,inactive: -0.015,inactive: -0.028,inactive: -0.012,inactive: 0.03
SPG21 (UniProt Q9NZD8),inactive: 0.014,inactive: 0.075,inactive: -0.08,inactive: 0.021,inactive: -0.045,inactive: 0.054,inactive: 0.103,inactive: 0.083,inactive: -0.032,inactive: 0.012,inactive: -0.042,inactive: -0.167,inactive: -0.046,inactive: 0.014,inactive: 0.043,inactive: -0.007,inactive: 0.021,inactive: 0.019,–,inactive: 0.072
STAU1 (UniProt O95793),inactive: -0.183,inactive: -0.22,inactive: -0.728,inactive: 0.016,inactive: -0.119,inactive: -0.013,inactive: -0.116,inactive: 0.007,inactive: 0.119,inactive: -0.188,inactive: -0.168,inactive: 0.052,inactive: 0.129,inactive: 0.148,inactive: 0.081,inactive: 0,inactive: 0.2,inactive: 0.428,inactive: 0.067,inactive: -0.581
SPAST (UniProt Q9UBP0),inactive: 0.139,inactive: 0.129,inactive: 0.032,inactive: -0.046,inactive: 0.06,inactive: 0.028,inactive: 0.007,inactive: 0.064,inactive: -0.048,inactive: -0.004,inactive: 0.054,inactive: -0.015,inactive: -0.073,inactive: 0.015,inactive: -0.157,inactive: -0.063,inactive: 0.013,inactive: 0.002,–,inactive: 0.114

# 2 successive records already listed:
Target,log2 fold change (erlotinib),log2 fold change [1],log2 fold change [2],log2 fold change [3],log2 fold change [4],log2 fold change [5],log2 fold change [6],log2 fold change [7],log2 fold change [8],log2 fold change [9],log2 fold change (IRAK-1-4 Inhibitor I),log2 fold change (ibrutinib),log2 fold change [10],log2 fold change (ralimetinib),log2 fold change [11],log2 fold change [12],log2 fold change [13],log2 fold change (pinometostat),log2 fold change [14],log2 fold change [15]
SRP9 (UniProt P49458),inactive: -0.111,inactive: -0.111,inactive: -0.48,inactive: -0.023,inactive: -0.063,inactive: 0.031,inactive: -0.076,inactive: -0.023,inactive: 0.061,inactive: -0.089,inactive: -0.171,inactive: -0.028,inactive: 0.084,inactive: 0.125,inactive: 0.07,inactive: 0.057,inactive: 0.152,inactive: 0.31,inactive: 0.106,inactive: -0.356
SRPK2 isoform 2 (UniProt P78362),inactive: -0.209,inactive: -0.125,inactive: -0.549,inactive: 0.126,inactive: -0.052,inactive: 0.007,inactive: -0.054,inactive: 0.049,inactive: 0.038,inactive: -0.186,inactive: -0.097,inactive: -0.003,inactive: 0.328,inactive: 0.182,inactive: 0.026,inactive: -0.011,inactive: 0.13,inactive: 0.346,inactive: 0.065,inactive: -0.4
